Test results taken from article PMC10642216.
No constants are given. Whether binding was seen depends on the method and setting. For some of these results: A result given as binding can be weak or reduced; the word gives no strength. Sequences can lack the tags named with a protein. For some of these results: In cells and extracts the contact can be indirect.

The chains behind the UniProt entries cited, without tags or fusion partners. Where a name states a change or a piece, a line headed by the entry shows the natural chain unless it says otherwise.
UniProt F4IE83: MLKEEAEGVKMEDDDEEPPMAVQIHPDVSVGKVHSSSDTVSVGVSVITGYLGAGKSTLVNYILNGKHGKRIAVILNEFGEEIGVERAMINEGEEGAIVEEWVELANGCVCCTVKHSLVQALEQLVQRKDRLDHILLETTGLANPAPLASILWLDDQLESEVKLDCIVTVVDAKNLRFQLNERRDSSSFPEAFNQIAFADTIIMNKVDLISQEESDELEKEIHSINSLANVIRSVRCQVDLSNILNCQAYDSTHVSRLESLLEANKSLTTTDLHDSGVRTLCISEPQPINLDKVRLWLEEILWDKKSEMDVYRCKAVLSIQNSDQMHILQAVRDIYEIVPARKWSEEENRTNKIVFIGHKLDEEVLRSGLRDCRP

Legend:
[1] = molecular target: T1, AtMAP1D (plastid-localized methionine aminopeptidase type I), yeast two-hybrid fusion (Arabidopsis thaliana) (UniProt Q9FV50); assay: two-hybrid; ProQuest Two-Hybrid System in yeast; reporters HIS3 (with 3AT), URA3 (5FOA) and lacZ (X-gal); full-length cDNAs in pDEST22 and pDEST32, reciprocal combinations as prey and bait for each pair
T1 sequence: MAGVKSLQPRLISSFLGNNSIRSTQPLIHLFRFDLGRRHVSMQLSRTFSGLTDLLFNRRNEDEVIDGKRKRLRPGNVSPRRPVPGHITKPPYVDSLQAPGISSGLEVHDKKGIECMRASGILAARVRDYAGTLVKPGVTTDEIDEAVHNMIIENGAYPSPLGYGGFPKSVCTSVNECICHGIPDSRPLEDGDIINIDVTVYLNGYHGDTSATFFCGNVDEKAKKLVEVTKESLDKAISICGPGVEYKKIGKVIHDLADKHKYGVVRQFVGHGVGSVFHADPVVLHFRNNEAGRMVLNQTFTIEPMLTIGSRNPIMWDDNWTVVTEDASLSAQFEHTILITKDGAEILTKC

[2] = molecular target: T2, AtMAP1B (plastid-localized methionine aminopeptidase type I), yeast two-hybrid fusion (Arabidopsis thaliana) (UniProt Q9FV51); assay: as above
T2 sequence: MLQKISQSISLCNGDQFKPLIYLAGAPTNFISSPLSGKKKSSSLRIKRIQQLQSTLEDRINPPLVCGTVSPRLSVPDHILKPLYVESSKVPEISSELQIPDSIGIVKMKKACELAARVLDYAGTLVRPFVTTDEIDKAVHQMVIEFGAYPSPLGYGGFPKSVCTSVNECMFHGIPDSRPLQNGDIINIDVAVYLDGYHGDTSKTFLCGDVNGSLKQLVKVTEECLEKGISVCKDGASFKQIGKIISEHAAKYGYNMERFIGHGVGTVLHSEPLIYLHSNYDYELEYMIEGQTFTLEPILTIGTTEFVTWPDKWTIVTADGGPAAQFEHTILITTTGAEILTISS

[3] = molecular target: T3, AtMAP1C (plastid-localized methionine aminopeptidase type I), yeast two-hybrid fusion (Arabidopsis thaliana) (UniProt Q9FV52); assay: as above
T3 sequence: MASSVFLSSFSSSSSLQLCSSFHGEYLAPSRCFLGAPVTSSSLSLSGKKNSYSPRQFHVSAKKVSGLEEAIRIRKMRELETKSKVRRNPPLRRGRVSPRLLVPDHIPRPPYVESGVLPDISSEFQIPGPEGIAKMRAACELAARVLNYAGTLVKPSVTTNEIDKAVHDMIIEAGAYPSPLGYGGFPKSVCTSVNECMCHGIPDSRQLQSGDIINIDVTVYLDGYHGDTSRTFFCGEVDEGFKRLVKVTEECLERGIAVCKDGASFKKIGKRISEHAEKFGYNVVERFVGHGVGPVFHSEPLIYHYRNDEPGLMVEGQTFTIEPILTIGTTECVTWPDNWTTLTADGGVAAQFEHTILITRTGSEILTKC

[4] = molecular target: T4, AtMAP1A fused with the N-terminal fragment of Venus (nVenus), BiFC construct (Arabidopsis thaliana) (UniProt Q9SLN5); assay: split reporter; BiFC in A. thaliana mesophyll protoplasts; AtZNG1-cCFP and AtMAP1A-nVenus co-transfected (5 µg of each plasmid), 16 h under weak light at room temperature, confocal microscopy
T4 sequence: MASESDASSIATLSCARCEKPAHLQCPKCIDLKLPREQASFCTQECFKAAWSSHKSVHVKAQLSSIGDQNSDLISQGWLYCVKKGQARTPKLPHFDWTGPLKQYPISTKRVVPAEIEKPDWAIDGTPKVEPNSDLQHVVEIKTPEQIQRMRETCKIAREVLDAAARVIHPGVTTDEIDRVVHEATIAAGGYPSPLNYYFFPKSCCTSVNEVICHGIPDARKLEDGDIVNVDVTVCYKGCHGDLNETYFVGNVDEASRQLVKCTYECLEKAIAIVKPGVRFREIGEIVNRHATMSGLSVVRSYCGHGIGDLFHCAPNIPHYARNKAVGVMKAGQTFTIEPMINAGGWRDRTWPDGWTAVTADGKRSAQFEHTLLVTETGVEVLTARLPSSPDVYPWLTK

[5] = molecular target: T5, AtMAP2A (type II methionine aminopeptidase), yeast two-hybrid fusion (Arabidopsis thaliana) (UniProt Q9FV49); assay: two-hybrid; ProQuest Two-Hybrid System in yeast; reporters HIS3 (with 3AT), URA3 (5FOA) and lacZ (X-gal); full-length cDNAs in pDEST22 and pDEST32, reciprocal combinations as prey and bait for each pair
T5 sequence: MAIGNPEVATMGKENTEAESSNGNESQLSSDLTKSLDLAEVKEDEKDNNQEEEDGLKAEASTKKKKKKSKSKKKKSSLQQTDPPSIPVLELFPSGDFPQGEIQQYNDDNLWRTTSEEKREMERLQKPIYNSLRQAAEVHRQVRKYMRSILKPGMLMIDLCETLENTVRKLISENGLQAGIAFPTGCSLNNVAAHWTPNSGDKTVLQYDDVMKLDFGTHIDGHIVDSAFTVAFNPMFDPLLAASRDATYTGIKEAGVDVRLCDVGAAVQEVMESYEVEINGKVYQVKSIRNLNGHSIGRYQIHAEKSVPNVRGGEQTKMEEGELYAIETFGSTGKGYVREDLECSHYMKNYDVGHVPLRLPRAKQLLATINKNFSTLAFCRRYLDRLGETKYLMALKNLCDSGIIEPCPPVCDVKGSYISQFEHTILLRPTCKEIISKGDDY

[6] = molecular target: T6, AtMAP1A (methionine aminopeptidase type I), yeast two-hybrid fusion (Arabidopsis thaliana) (UniProt Q9SLN5); assay: as above
T6 sequence: T4 sequence

[7] = molecular target: T7, AtMAP2B (type II methionine aminopeptidase), yeast two-hybrid fusion (Arabidopsis thaliana) (UniProt Q56Y85); assay: as above
T7 sequence: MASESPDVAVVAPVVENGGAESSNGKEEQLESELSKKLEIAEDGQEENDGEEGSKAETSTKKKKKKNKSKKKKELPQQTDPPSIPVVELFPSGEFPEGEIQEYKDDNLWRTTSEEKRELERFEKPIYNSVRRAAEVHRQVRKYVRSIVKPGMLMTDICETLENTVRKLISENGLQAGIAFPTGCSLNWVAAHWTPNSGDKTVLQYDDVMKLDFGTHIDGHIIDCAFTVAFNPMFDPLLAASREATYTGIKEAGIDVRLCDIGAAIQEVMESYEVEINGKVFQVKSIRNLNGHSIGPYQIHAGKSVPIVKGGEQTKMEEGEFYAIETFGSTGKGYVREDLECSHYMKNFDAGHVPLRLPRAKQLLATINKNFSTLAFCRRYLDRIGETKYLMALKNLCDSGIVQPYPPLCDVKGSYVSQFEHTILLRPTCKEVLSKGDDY

Row | binding [1] | binding [2] | binding [3] | binding [4] | binding [5] | binding [6] | binding [7] | Substance
1 | no binding | no binding | no binding | – | – | – | – | AtZNG2A1, yeast two-hybrid fusion (Arabidopsis thaliana)
2 | no binding | no binding | no binding | – | – | – | – | AtZNG2A2, yeast two-hybrid fusion (Arabidopsis thaliana)
3 | – | – | – | binds | – | – | – | AtZNG1 fused to the C-terminal fragment of Cerulean (cCFP), BiFC construct (from UniProt F4IE83)
4 | – | – | – | – | no binding | binds | no binding | AtZNG1 (Zn-regulated GTPase metalloprotein activator 1), yeast two-hybrid fusion (Arabidopsis thaliana)
